The list shows a part of the results. Hit calls seldom repeat between salt and free forms of one compound.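 In K562 cells expressing nanoluciferase-fused kinases, luminescence was recorded at 4 h intervals between 2 and 18 h, normalized as percent of control with DMSO at 100% and a positive control at 0%. A significant (2 sigma) signal drop marks a time point as decreased. The authors' rule for a hit is not shown and takes in more than the number of time points.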
Key:
Experiment in all cases: kinase-Nluc reporter destabilization hit call (1 = scored as downregulated) (binary); higher = compound decreases kinase abundance
Details in all cases: K562; 2-18 h
IRAK3 = IRAK3 (UniProt Q9Y616)
JAK1 = JAK1 (UniProt P23458)
LCK = LCK (UniProt P06239)
LIMK1 = LIMK1 (UniProt P53667)
LIMK2 = LIMK2 (UniProt P53671)
LMTK2 = LMTK2 (UniProt Q8IWU2)
LYN = LYN (UniProt P07948)
MAP2K1 = MAP2K1 (UniProt Q02750)
MAP2K2 = MAP2K2 (UniProt P36507)
MAP4K2 = MAP4K2 (UniProt Q12851)
MAPK1 = MAPK1 (UniProt P28482)
MAPK4 = MAPK4 (UniProt P31152)
MAPKAPK2 = MAPKAPK2 (UniProt P49137)
MKNK1 = MKNK1 (UniProt Q9BUB5)
NTRK2 = NTRK2 (UniProt Q16620)
NTRK3 = NTRK3 (UniProt Q16288)
PAK4 = PAK4 (UniProt O96013)
PBK = PBK (UniProt Q96KB5)
PDGFRB = PDGFRB (UniProt P09619)
PDK1 = PDK1 (UniProt Q15118)

Sequences of proteins named here, by UniProt entry; tags and fusion partners are left off. A change or cut given only in a name is not applied to a line headed by its entry.
UniProt Q9Y616: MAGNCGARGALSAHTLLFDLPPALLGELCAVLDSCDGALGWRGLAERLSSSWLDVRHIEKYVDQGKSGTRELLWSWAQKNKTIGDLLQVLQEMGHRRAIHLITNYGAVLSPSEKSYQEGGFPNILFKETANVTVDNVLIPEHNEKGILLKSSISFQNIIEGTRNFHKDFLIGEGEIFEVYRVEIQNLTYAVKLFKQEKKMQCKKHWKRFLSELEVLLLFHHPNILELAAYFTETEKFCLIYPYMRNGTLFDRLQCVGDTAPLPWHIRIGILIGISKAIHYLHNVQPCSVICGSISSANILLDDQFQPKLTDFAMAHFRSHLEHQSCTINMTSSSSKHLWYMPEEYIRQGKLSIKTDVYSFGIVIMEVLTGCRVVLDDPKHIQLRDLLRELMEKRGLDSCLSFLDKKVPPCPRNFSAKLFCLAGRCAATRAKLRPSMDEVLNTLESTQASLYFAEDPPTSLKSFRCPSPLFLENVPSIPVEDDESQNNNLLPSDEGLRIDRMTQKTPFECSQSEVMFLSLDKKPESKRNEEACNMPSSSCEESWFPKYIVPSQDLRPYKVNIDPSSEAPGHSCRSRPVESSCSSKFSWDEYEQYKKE
UniProt P53671: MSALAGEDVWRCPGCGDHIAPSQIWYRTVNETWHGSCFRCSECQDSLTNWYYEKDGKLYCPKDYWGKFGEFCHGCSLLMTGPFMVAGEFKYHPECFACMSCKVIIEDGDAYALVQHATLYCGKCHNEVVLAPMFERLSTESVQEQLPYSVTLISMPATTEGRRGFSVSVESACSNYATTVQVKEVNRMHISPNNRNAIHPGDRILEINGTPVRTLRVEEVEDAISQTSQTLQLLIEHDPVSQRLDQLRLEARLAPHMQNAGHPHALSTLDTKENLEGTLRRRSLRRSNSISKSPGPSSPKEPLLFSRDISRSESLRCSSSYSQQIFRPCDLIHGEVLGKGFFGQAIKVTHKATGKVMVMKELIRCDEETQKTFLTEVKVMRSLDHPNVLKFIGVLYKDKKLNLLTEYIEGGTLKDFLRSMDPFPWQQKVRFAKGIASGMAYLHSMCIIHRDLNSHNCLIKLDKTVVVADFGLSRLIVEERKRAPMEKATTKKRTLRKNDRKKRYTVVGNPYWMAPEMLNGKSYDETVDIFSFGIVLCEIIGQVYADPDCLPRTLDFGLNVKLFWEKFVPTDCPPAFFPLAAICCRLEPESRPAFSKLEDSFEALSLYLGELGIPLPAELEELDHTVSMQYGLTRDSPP
UniProt Q8IWU2: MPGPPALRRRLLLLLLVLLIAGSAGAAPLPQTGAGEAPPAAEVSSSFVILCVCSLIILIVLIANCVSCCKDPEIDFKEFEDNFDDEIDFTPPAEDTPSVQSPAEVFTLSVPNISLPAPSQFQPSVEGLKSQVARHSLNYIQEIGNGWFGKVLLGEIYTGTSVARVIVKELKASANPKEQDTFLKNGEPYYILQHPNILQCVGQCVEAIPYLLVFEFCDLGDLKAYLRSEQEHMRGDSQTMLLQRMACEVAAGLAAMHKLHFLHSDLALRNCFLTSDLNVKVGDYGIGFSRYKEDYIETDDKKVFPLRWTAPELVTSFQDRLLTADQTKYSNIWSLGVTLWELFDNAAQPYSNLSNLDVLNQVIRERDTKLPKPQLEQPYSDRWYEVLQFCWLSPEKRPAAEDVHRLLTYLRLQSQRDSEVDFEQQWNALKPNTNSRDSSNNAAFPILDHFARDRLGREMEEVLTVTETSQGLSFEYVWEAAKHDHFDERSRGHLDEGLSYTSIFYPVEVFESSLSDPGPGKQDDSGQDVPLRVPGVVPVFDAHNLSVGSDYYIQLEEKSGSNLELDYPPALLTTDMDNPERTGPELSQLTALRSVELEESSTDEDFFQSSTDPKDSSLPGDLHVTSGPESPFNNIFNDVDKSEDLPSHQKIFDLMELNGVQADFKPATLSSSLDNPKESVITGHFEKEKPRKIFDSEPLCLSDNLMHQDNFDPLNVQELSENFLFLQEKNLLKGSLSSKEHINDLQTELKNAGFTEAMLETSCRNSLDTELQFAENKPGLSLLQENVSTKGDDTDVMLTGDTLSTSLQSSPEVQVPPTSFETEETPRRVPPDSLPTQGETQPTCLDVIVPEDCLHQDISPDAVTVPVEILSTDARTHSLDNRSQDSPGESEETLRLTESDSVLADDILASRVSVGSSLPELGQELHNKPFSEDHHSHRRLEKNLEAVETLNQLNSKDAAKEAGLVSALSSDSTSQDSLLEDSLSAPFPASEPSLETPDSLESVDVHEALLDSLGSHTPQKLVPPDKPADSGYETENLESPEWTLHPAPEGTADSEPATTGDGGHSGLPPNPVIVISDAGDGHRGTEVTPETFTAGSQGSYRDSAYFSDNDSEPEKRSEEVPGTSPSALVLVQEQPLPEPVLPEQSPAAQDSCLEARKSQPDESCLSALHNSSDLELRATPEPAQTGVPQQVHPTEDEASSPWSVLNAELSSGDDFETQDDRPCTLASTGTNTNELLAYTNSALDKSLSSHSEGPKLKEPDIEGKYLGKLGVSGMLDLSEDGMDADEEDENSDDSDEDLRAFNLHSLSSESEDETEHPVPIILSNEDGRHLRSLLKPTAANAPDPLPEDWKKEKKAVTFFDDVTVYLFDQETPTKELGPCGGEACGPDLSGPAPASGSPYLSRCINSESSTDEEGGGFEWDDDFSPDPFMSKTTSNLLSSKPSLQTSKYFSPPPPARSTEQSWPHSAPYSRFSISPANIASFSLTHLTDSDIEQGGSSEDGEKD
UniProt P07948: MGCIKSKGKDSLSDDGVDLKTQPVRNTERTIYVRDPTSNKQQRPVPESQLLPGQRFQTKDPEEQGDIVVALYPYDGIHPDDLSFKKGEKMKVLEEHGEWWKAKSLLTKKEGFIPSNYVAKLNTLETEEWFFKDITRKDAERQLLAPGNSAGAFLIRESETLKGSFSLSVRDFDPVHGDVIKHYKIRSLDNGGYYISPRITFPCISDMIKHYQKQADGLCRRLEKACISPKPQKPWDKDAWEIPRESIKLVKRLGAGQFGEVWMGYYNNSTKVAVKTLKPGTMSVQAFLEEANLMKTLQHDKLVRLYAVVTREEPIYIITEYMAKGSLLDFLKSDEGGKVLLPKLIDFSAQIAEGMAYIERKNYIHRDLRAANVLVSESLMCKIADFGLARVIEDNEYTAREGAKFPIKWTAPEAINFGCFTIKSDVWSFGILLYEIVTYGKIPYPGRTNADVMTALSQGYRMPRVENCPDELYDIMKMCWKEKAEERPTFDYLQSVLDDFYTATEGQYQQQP
UniProt P31152, whole entry: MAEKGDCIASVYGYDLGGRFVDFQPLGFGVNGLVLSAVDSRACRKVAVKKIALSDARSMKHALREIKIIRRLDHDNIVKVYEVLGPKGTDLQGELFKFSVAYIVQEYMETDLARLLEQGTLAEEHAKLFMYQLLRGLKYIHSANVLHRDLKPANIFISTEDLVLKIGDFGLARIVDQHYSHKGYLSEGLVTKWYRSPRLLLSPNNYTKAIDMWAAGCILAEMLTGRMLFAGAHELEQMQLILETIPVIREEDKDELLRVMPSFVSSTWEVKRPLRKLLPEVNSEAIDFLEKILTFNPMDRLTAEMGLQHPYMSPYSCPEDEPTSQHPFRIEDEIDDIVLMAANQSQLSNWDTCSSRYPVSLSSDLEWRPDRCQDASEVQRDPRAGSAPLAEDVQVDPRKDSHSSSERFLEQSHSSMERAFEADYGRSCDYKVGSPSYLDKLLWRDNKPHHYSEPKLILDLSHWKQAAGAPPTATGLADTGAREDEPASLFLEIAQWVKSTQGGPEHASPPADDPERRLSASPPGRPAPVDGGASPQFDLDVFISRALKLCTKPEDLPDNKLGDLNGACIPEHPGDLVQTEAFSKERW
UniProt P49137, whole entry, looked up: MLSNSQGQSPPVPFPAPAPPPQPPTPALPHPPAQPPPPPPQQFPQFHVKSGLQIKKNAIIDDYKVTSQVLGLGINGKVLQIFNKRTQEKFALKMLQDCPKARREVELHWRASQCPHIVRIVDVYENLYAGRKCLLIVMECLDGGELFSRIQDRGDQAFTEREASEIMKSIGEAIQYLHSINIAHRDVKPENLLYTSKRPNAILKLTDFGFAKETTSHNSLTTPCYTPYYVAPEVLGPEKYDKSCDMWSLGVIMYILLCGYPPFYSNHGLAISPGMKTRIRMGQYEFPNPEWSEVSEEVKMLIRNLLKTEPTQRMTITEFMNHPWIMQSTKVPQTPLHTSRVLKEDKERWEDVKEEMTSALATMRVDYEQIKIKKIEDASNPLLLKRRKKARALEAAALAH
UniProt Q16620, whole entry, looked up: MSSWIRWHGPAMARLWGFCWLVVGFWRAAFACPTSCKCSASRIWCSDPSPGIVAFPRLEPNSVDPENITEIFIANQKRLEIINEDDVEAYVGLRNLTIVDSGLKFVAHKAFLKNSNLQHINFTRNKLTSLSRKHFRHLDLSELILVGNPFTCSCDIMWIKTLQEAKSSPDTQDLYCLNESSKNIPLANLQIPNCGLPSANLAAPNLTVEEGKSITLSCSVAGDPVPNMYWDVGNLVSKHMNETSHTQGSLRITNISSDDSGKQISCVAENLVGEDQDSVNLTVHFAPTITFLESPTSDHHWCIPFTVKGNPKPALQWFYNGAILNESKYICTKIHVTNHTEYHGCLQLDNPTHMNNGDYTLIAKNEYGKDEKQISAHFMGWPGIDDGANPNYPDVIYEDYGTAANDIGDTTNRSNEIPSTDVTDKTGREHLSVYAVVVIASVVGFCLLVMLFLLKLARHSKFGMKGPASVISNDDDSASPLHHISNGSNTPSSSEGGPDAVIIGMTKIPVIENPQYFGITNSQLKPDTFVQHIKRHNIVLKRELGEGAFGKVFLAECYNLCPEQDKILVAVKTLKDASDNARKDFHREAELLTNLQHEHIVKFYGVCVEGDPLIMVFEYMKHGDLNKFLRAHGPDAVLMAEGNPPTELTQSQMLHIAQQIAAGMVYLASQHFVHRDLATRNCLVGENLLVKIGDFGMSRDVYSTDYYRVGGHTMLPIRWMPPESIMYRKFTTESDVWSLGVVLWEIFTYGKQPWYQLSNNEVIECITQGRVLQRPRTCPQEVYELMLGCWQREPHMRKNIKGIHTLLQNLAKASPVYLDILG
UniProt Q16288, whole entry, looked up: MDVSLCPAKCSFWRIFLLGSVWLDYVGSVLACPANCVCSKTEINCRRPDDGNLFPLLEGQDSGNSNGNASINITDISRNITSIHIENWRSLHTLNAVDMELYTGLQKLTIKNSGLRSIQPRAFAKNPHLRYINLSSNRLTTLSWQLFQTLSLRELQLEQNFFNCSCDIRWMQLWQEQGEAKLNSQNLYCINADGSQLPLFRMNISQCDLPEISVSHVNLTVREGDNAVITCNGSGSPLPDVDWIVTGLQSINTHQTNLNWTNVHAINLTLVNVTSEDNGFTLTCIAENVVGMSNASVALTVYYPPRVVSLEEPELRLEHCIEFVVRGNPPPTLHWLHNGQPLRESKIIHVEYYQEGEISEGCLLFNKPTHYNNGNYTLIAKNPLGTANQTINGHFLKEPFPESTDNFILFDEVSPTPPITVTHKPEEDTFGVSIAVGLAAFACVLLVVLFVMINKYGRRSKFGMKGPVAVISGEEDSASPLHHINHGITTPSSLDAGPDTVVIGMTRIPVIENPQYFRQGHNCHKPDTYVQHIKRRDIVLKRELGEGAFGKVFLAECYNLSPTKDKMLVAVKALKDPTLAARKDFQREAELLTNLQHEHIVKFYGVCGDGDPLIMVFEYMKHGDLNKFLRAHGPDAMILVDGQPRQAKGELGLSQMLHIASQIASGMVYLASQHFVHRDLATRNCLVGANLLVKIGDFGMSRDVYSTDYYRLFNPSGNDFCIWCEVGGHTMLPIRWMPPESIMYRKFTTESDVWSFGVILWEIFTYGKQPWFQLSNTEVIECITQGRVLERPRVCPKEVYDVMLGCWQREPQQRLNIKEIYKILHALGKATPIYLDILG
UniProt Q15118, whole entry, looked up: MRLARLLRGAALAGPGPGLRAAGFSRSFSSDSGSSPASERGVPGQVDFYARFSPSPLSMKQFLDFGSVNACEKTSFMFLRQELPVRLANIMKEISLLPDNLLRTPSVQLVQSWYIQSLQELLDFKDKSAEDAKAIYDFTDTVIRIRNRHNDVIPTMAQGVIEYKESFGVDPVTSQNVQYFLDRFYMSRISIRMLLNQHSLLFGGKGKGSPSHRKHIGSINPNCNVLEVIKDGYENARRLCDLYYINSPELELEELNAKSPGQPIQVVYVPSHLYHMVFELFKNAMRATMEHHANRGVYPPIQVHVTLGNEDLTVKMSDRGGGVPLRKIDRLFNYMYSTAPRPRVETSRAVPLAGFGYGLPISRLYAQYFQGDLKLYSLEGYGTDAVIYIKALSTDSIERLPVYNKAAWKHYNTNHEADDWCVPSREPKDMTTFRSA

Measured: kinase-Nluc reporter destabilization hit call

Cc1[nH]c(/C=C2\C(=O)Nc3ccc(F)cc32)c(C)c1C(=O)N[C@H]1CCN(C(=O)N(C)C)C1 [Vorolanib] (10 µM)
inactive: IRAK3 = 0 | JAK1 = 0 | LCK 0 | LIMK1 = 0 | LIMK2 = 0 | LMTK2 = 0 | LYN 0 | MAP2K1 = 0 | MAP2K2 = 0 | MAP4K2 = 0 | MAPK1 = 0 | MAPK4 = 0 | MAPKAPK2 = 0 | MKNK1 = 0 | NTRK2 = 0 | NTRK3 = 0 | PAK4 = 0 | PBK 0 | PDGFRB 0 | PDK1 = 0

CN(C)C(=O)Cn1cc(-c2ccc(-c3cncc4ccccc34)cc2)cn1 (10 µM)
inactive: IRAK3 = 0 | JAK1 = 0 | LCK 0 | LIMK1 = 0 | LIMK2 = 0 | LMTK2 = 0 | LYN 0 | MAP2K1 = 0 | MAP2K2 = 0 | MAP4K2 = 0 | MAPK1 = 0 | MAPK4 = 0 | MAPKAPK2 = 0 | MKNK1 = 0 | NTRK2 = 0 | NTRK3 = 0 | PAK4 = 0 | PBK 0 | PDGFRB 0 | PDK1 = 0

COc1ccc2c(OCc3nnc4ccc(-c5ccccc5)nn34)ccnc2c1 (2 µM)
inactive: IRAK3 = 0 | JAK1 = 0 | LCK 0 | LIMK1 = 0 | LIMK2 = 0 | LMTK2 = 0 | LYN 0 | MAP2K1 = 0 | MAP2K2 = 0 | MAP4K2 = 0 | MAPK1 = 0 | MAPK4 = 0 | MAPKAPK2 = 0 | MKNK1 = 0 | NTRK2 = 0 | NTRK3 = 0 | PAK4 = 0 | PBK 0 | PDGFRB 0 | PDK1 = 0

Three compounds from above, sorted by length of the SMILES, rising:
COc1ccc2c(OCc3nnc4ccc(-c5ccccc5)nn34)ccnc2c1 (2 µM)
inactive: IRAK3 = 0 | JAK1 = 0 | LCK 0 | LIMK1 = 0 | LIMK2 = 0 | LMTK2 = 0 | LYN 0 | MAP2K1 = 0 | MAP2K2 = 0 | MAP4K2 = 0 | MAPK1 = 0 | MAPK4 = 0 | MAPKAPK2 = 0 | MKNK1 = 0 | NTRK2 = 0 | NTRK3 = 0 | PAK4 = 0 | PBK 0 | PDGFRB 0 | PDK1 = 0

CN(C)C(=O)Cn1cc(-c2ccc(-c3cncc4ccccc34)cc2)cn1 (10 µM)
inactive: IRAK3 = 0 | JAK1 = 0 | LCK 0 | LIMK1 = 0 | LIMK2 = 0 | LMTK2 = 0 | LYN 0 | MAP2K1 = 0 | MAP2K2 = 0 | MAP4K2 = 0 | MAPK1 = 0 | MAPK4 = 0 | MAPKAPK2 = 0 | MKNK1 = 0 | NTRK2 = 0 | NTRK3 = 0 | PAK4 = 0 | PBK 0 | PDGFRB 0 | PDK1 = 0

Cc1[nH]c(/C=C2\C(=O)Nc3ccc(F)cc32)c(C)c1C(=O)N[C@H]1CCN(C(=O)N(C)C)C1 [Vorolanib] (10 µM)
inactive: IRAK3 = 0 | JAK1 = 0 | LCK 0 | LIMK1 = 0 | LIMK2 = 0 | LMTK2 = 0 | LYN 0 | MAP2K1 = 0 | MAP2K2 = 0 | MAP4K2 = 0 | MAPK1 = 0 | MAPK4 = 0 | MAPKAPK2 = 0 | MKNK1 = 0 | NTRK2 = 0 | NTRK3 = 0 | PAK4 = 0 | PBK 0 | PDGFRB 0 | PDK1 = 0

(continued)

Cn1cc(-c2ccc3nnc(Sc4ccc5ncccc5c4)n3n2)cn1 (10 µM)
inactive: IRAK3 = 0 | JAK1 = 0 | LCK 0 | LIMK1 = 0 | LIMK2 = 0 | LMTK2 = 0 | LYN 0 | MAP2K1 = 0 | MAP2K2 = 0 | MAP4K2 = 0 | MAPK1 = 0 | MAPK4 = 0 | MAPKAPK2 = 0 | MKNK1 = 0 | NTRK2 = 0 | NTRK3 = 0 | PAK4 = 0 | PBK 0 | PDGFRB 0 | PDK1 = 0

C[C@@H]1CC[C@@H](Nc2nc(NC(C)(C)C)ncc2C(N)=O)C[C@H]1O (10 µM)
inactive: IRAK3 = 0 | JAK1 = 0 | LCK 0 | LIMK1 = 0 | LIMK2 = 0 | LMTK2 = 0 | LYN 0 | MAP2K1 = 0 | MAP2K2 = 0 | MAP4K2 = 0 | MAPK1 = 0 | MAPK4 = 0 | MAPKAPK2 = 0 | MKNK1 = 0 | NTRK2 = 0 | NTRK3 = 0 | PAK4 = 0 | PBK 0 | PDGFRB 0 | PDK1 = 0

Cn1cc(-c2cnn3c(N)c(Br)c([C@@H]4CCCNC4)nc23)cn1 (2.5 µM)
inactive: IRAK3 = 0 | JAK1 = 0 | LCK 0 | LIMK1 = 0 | LIMK2 = 0 | LMTK2 = 0 | LYN 0 | MAP2K1 = 0 | MAP2K2 = 0 | MAP4K2 = 0 | MAPK1 = 0 | MAPK4 = 0 | MAPKAPK2 = 0 | MKNK1 = 0 | NTRK2 = 0 | NTRK3 = 0 | PAK4 = 0 | PBK 0 | PDGFRB 0 | PDK1 = 0

Nc1ncnc2c1c(-c1ccc(Oc3ccccc3)cc1)nn2C1CCCC1 (2.5 µM)
inactive: IRAK3 = 0 | JAK1 = 0 | LCK 0 | LIMK1 = 0 | LIMK2 = 0 | LMTK2 = 0 | LYN 0 | MAP2K1 = 0 | MAP2K2 = 0 | MAP4K2 = 0 | MAPK1 = 0 | MAPK4 = 0 | MAPKAPK2 = 0 | MKNK1 = 0 | NTRK2 = 0 | NTRK3 = 0 | PAK4 = 0 | PBK 0 | PDGFRB 0 | PDK1 = 0

FC(F)c1nc2ccccc2n1-c1nc(N2CCOCC2)nc(N2CCOCC2)n1 (2 µM)
inactive: IRAK3 = 0 | JAK1 = 0 | LCK 0 | LIMK1 = 0 | LIMK2 = 0 | LMTK2 = 0 | LYN 0 | MAP2K1 = 0 | MAP2K2 = 0 | MAP4K2 = 0 | MAPK1 = 0 | MAPK4 = 0 | MAPKAPK2 = 0 | MKNK1 = 0 | NTRK2 = 0 | NTRK3 = 0 | PAK4 = 0 | PBK 0 | PDGFRB 0 | PDK1 = 0

CN1CCN(c2cccc(Nc3nc4c(-c5ccc(S(C)(=O)=O)cc5)cccn4n3)c2)CC1 (10 µM)
inactive: IRAK3 = 0 | JAK1 = 0 | LCK 0 | LIMK1 = 0 | LIMK2 = 0 | LMTK2 = 0 | LYN 0 | MAP2K1 = 0 | MAP2K2 = 0 | MAP4K2 = 0 | MAPK1 = 0 | MAPK4 = 0 | MAPKAPK2 = 0 | MKNK1 = 0 | NTRK2 = 0 | NTRK3 = 0 | PAK4 = 0 | PBK 0 | PDGFRB 0 | PDK1 = 0

Nc1nc2ccc(Cl)cc2c2nc(-c3ccco3)nn12 (10 µM)
inactive: IRAK3 = 0 | JAK1 = 0 | LCK 0 | LIMK1 = 0 | LIMK2 = 0 | LMTK2 = 0 | LYN 0 | MAP2K1 = 0 | MAP2K2 = 0 | MAP4K2 = 0 | MAPK1 = 0 | MAPK4 = 0 | MAPKAPK2 = 0 | MKNK1 = 0 | NTRK2 = 0 | NTRK3 = 0 | PAK4 = 0 | PBK 0 | PDGFRB 0 | PDK1 = 0

O=C1Nc2ccc(C(=O)c3ccco3)cc2C1=Cc1cc(Cl)c(O)c(Cl)c1 (2.5 µM)
inactive: IRAK3 = 0 | JAK1 = 0 | LCK 0 | LIMK1 = 0 | LIMK2 = 0 | LMTK2 = 0 | LYN 0 | MAP2K1 = 0 | MAP2K2 = 0 | MAP4K2 = 0 | MAPK1 = 0 | MAPK4 = 0 | MAPKAPK2 = 0 | MKNK1 = 0 | NTRK2 = 0 | NTRK3 = 0 | PAK4 = 0 | PBK 0 | PDGFRB 0 | PDK1 = 0

Cn1ncc(Cl)c1-c1cc(C(=O)N[C@H](CN)Cc2ccc(F)c(F)c2)oc1Cl [Uprosertib] (10 µM)
inactive: IRAK3 = 0 | JAK1 = 0 | LCK 0 | LIMK1 = 0 | LIMK2 = 0 | LMTK2 = 0 | LYN 0 | MAP2K1 = 0 | MAP2K2 = 0 | MAP4K2 = 0 | MAPK1 = 0 | MAPK4 = 0 | MAPKAPK2 = 0 | MKNK1 = 0 | NTRK2 = 0 | NTRK3 = 0 | PAK4 = 0 | PBK 0 | PDGFRB 0 | PDK1 = 0
